Test results taken from article PMC9253107, “Engineering of ultraID, a compact and hyperactive enzyme for proximity-dependent biotinylation in living cells” (Communications Biology, 2022).
These are yes or no findings as the source states them, for the method shown. In cells and extracts the contact can be indirect. Here binding means that the protein was enriched with, or labelled near, the bait; the list need not be complete. One block for each binder: values may come before it.

Amino acid sequences for entries named in this document (tags omitted).
UniProt Q9UKV8: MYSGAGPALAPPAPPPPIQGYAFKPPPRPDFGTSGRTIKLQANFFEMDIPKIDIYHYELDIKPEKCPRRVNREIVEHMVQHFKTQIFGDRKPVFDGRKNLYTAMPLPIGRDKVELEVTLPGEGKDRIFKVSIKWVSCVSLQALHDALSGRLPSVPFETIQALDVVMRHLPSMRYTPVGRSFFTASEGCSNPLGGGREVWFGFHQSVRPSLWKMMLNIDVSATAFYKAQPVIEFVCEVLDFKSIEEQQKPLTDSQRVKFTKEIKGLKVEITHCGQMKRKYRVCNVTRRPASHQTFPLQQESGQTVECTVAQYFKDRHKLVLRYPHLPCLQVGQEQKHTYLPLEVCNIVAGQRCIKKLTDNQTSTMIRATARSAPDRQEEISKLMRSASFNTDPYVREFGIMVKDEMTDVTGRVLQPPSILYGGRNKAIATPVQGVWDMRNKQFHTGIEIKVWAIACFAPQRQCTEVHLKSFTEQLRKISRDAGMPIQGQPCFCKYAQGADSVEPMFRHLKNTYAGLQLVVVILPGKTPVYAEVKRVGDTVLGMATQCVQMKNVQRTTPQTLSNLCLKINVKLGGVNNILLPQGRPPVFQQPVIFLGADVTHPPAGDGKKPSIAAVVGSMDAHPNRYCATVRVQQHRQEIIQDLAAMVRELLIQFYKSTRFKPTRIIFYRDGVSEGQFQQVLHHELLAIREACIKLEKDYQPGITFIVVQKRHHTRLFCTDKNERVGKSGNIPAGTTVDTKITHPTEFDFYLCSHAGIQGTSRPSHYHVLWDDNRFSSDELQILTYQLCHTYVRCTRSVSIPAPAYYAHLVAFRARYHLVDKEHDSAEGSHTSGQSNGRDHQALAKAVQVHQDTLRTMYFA

Assays:
[1] = target: T1, γ1-COP-ultraID (UniProt Q9QZE5); experiment: proximity labelling; γ1-COP-ultraID or γ2-COP-ultraID rescue lines of P19 cells, 50 uM biotin for 4 h, mock or brefeldin A (5 ug/mL, 1 h before and during labeling); streptavidin pulldown, LC-MS/MS; enrichment against ultraID-Ago2 (mock) and of mock against BFA; three biological replicates
T1 sequence: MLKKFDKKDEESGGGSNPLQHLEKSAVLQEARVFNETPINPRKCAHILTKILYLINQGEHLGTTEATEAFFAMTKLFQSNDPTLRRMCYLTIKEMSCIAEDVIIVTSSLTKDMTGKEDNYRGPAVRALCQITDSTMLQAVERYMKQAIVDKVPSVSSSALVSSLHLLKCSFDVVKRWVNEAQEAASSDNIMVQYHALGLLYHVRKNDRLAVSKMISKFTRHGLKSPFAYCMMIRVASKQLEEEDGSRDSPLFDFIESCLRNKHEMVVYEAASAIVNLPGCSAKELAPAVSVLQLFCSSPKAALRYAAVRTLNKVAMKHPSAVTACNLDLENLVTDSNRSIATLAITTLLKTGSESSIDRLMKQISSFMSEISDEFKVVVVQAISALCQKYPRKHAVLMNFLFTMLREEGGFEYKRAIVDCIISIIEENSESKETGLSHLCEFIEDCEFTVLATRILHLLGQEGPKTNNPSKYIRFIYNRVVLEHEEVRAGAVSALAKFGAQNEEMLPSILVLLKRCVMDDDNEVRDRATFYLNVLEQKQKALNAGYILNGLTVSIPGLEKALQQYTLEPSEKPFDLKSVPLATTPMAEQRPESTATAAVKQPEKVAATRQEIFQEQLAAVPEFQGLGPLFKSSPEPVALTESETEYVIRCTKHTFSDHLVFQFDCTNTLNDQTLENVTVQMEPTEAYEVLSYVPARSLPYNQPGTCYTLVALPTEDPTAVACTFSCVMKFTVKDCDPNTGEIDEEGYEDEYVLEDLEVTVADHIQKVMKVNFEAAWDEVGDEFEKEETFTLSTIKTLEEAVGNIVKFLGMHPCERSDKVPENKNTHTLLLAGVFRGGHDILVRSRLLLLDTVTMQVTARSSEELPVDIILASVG

[2] = target: BioID-Ago2 (UniProt Q9UKV8); experiment: proximity labelling; BioID-Ago2 in doxycycline-induced HeLa 11ht line, 50 uM biotin overnight (added with doxycycline, 24 h); streptavidin pulldown, on-bead trypsin digestion, LC-MS/MS; enrichment (LFQ, proDA) against BioID-Rab11; four biological replicates

- binding [1]: binds
B1: ERGIC-53 (protein, UniProt Q9D0F3 31-517)
chain: DGTGGDAAAPGAAGTQAELPHRRFEYKYSFKGPHLVQSDGTVPFWAHAGNAIPSADQIRIAPSLKSQRGSVWTKAKAAFENWEVEVTFRVTGRGRIGADGLAIWYTENQGLDGPVFGSADTWNGVGIFFDSFDNDGKKNNPAIVVIGNNGQINYDHQNDGATQALASCQRDFRNKPYPVRAKITYYQKTLTVMINNGFTPDKNDYEFCAKVENMVIPTQGHFGISAATGGLADDHDVLSFLTFQLTEPGKEPPTAEKDISEKEKEKYQEEFEHFQQELDKKKEEFQKGHPDLQGQPADDIFESIGDRELRQVFEGQNRIHLEIKQLNRQLDMILDEQRRYVSSLTEEISRRGAGTPGQPGQVSQQELDTVVKSQQEILRQVNEVKNSMSETVRLVSGIQHPGSAGVYETTQHFMDIKEHLHVVKRDIDSLAQRSMPSNEKPKCPDLPPFPSCLSTIHFVIFVVVQTVLFVGYIMYRTQQEAAAKKFF

- binding [1]: binds
B2: golgin-84 (protein, UniProt Q9QYE6 1-729)
chain: MSWFADLAGRAEDLLNRVDQGAATALRKENTSNIFYSKNTDYPELQQQNTDSNYQTGQKANYISSAADNIRHQKATILAGTANVKVGSRTVGDATHPTEHASAPRPSSQFVRRKKSEPDDELLFDFLNSSQKEPTGRVEVKKEKGRAPVSPSSPSGVSSVNTSVTTTKAMGGNAGSQSPGVNSSDSVPEVHKEPSEESTAPSATSEEHSSTPSDGSSRSQELSNLRLENQLLRNEVQSLNQEMASLLQRSKETQEELNKARVRVEKWNVDNSKSDRITRELRAQVDDLTEAVAAKDSQLAVLKVRLQEADQVLSSRTEALEALRSEKSRIMQDHKEGSSLQNQALQTLQERLHEADATLKREQESYKQMQSEFAARLNKMEVDRQNLAEAVTLAERKYSEEKKKVDELQQQVKLHRASLESAKQELVDYKQKATRILQSKEKLINSLKEGSSFEGLESSTASSMELEELRHEKEMQKEEIQKLMGQMHQLRSELQDMEAQQVSEAESAREQLQDLQDQIAKQRTSKQELETELERMKQEFRYMEEDLHRTKNTLQSRIKDREEEIQKLRNQLTNKTLSNSSQSELESRLHQLTETLIQKQTMLESLSTEKNSLVFQLERLEQQVHSASSGPNSGSAINMSGVDSGEGTRLRNVPVLFNDTETNLAGMYGKVRKAASSIDQFSIRLGIFLRRYPIARVFVIIYMALLHLWVMIVLLTYSPEMHHDQPYGK

- binding [2]: binds
B3: DCP1B (protein, UniProt Q8IZD4 1-617)
chain: MAAVAAGGLVGKGRDISLAALQRHDPYINRIVDVASQVALYTFGHRANEWEKTDVEGTLFVYTRSASPKHGFTIMNRLSMENRTEPITKDLDFQLQDPFLLYRNARLSIYGIWFYDKEECQRIAELMKNLTQYEQLKAHQGTGAGISPVILNSGEGKEVDILRMLIKAKDEYTKCKTCSEPKKITSSSAIYDNPNLIKPIPVKPSENQQQRIPQPNQTLDPEPQHLSLTALFGKQDKATCQETVEPPQTLHQQQQQQQQQQEKLPIRQGVVRSLSYEEPRRHSPPIEKQLCPAIQKLMVRSADLHPLSELPENRPCENGSTHSAGEFFTGPVQPGSPHNIGTSRGVQNASRTQNLFEKLQSTPGAANKCDPSTPAPASSAALNRSRAPTSVTPVAPGKGLAQPPQAYFNGSLPPQTVGHQAHGREQSTLPRQTLPISGSQTGSSGVISPQELLKKLQIVQQEQQLHASNRPALAAKFPVLAQSSGTGKPLESWINKTPNTEQQTPLFQVISPQRIPATAAPSLLMSPMVFAQPTSVPPKERESGLLPVGGQEPPAAATSLLLPIQSPEPSVITSSPLTKLQLQEALLYLIQNDDNFLNIIYEAYLFSMTQAAMKKTM
